Assay results published in paper PMC12727980.
The exact form of at least one protein or probe is not confirmed. A negative result means that nothing was seen under these conditions.

Biological target: T1, GST-KH (Bicc1 KH domains) (UniProt Q99MQ1)
T1 sequence (Q99MQ1 whole entry, looked up): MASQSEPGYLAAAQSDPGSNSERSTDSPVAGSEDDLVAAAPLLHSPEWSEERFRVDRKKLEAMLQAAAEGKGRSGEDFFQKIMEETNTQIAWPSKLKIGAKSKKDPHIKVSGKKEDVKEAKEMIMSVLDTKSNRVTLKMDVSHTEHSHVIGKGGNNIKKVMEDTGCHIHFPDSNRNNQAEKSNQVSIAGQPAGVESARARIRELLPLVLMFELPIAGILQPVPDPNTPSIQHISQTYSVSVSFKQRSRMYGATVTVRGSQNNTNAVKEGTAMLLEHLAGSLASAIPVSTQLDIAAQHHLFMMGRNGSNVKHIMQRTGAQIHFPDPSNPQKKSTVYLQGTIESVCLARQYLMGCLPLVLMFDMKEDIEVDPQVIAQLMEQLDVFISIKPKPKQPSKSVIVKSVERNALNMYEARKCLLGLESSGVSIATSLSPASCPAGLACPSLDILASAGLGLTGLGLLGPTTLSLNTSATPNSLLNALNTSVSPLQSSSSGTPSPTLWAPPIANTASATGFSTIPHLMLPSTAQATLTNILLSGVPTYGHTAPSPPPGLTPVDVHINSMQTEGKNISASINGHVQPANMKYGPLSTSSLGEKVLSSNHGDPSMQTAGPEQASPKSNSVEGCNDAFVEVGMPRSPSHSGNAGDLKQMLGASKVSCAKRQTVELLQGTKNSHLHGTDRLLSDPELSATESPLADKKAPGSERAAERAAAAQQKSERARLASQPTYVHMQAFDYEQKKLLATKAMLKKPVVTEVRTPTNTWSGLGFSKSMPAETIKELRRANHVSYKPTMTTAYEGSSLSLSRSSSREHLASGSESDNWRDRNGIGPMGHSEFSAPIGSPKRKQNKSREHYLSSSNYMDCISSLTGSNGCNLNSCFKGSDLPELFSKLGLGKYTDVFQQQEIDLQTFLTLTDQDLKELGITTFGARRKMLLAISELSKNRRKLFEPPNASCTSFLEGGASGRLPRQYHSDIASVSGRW
Experiment: EMSA
Settings: probe alone, no RNA, EMSA buffer 1X: 10 mM Tris-HCl pH 8.0, 100 mM KCl, 2.5 mM MgCl2, 2.5% glycerol (slightly below 1X in some mixes), about 1 mM DTT, 0.05 ug/uL yeast tRNA, 50 nM tagged RNA, recombinant protein, protein details: GST, single-stranded DNA

Sequence: CGCACCATCTCGGTACGTG [Probe #2]
- binding result (label: 5'-Dyomics 781): no binding

Sequence: CTGAGCCTGTTGCCCAGAC [Probe #1]
- binding result (label: 5'-Dyomics 681): no binding
